According to the supplement of paper PMC10849652:
Some of the results follow.

By UniProt entry, the sequences of proteins in these tests, tags left out. Where a name states a change or a piece, a line headed by the entry shows the natural chain unless it says otherwise.
UniProt Q32NC0: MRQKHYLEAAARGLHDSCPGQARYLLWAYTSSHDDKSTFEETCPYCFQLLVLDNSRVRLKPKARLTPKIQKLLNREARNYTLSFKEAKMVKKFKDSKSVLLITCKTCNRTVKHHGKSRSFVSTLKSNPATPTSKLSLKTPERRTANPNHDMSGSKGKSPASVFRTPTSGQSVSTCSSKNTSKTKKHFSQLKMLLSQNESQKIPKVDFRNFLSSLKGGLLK
UniProt Q96GV9: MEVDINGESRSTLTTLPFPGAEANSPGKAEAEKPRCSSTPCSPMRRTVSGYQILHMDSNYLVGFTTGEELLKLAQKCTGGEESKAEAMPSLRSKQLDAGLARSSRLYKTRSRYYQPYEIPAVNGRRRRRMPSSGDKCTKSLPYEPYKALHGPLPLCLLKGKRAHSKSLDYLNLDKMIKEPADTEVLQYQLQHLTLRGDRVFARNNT
UniProt Q9BWL3: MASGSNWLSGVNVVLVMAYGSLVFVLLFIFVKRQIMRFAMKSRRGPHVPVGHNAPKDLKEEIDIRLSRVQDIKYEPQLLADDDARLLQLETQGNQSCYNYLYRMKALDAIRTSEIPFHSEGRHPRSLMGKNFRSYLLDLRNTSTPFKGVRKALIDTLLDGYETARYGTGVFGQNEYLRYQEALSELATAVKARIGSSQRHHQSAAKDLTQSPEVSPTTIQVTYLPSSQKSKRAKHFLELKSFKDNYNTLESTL
UniProt Q9H741: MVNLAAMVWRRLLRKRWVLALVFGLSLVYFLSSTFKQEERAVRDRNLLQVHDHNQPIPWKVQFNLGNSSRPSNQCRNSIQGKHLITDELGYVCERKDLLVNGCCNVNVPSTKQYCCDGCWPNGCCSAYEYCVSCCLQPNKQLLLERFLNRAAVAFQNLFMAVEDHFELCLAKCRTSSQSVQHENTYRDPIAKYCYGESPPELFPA
UniProt Q96L46: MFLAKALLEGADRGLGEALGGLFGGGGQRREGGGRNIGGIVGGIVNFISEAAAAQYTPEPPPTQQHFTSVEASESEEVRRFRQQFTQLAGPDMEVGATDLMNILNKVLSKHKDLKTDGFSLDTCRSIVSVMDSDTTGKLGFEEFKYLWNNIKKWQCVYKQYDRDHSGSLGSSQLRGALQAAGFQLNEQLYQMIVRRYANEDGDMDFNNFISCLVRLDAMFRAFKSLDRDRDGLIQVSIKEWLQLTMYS
UniProt Q8N5S9: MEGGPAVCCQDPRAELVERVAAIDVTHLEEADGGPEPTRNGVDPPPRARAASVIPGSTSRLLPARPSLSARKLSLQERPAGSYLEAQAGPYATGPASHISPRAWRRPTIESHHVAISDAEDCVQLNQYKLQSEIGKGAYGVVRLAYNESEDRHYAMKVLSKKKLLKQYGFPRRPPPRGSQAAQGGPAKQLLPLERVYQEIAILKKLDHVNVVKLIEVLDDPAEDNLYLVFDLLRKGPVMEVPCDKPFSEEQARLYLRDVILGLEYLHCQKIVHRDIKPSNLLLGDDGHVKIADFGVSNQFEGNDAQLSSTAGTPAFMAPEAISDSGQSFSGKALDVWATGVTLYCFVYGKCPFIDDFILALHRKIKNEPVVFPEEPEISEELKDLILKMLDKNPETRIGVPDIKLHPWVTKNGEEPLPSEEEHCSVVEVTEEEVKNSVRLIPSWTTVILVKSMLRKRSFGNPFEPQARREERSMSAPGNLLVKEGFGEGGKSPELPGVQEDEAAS
UniProt Q9BRJ6: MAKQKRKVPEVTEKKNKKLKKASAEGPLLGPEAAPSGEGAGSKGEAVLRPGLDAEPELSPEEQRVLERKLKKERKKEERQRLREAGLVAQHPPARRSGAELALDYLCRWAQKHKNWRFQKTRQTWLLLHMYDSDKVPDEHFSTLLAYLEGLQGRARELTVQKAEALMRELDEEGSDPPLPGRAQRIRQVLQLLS
UniProt P27482, whole entry, looked up: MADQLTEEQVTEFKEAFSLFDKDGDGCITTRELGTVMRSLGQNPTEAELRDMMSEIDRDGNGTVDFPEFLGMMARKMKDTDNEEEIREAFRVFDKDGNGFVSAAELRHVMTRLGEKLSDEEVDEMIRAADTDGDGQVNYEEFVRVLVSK
UniProt Q9BXL7: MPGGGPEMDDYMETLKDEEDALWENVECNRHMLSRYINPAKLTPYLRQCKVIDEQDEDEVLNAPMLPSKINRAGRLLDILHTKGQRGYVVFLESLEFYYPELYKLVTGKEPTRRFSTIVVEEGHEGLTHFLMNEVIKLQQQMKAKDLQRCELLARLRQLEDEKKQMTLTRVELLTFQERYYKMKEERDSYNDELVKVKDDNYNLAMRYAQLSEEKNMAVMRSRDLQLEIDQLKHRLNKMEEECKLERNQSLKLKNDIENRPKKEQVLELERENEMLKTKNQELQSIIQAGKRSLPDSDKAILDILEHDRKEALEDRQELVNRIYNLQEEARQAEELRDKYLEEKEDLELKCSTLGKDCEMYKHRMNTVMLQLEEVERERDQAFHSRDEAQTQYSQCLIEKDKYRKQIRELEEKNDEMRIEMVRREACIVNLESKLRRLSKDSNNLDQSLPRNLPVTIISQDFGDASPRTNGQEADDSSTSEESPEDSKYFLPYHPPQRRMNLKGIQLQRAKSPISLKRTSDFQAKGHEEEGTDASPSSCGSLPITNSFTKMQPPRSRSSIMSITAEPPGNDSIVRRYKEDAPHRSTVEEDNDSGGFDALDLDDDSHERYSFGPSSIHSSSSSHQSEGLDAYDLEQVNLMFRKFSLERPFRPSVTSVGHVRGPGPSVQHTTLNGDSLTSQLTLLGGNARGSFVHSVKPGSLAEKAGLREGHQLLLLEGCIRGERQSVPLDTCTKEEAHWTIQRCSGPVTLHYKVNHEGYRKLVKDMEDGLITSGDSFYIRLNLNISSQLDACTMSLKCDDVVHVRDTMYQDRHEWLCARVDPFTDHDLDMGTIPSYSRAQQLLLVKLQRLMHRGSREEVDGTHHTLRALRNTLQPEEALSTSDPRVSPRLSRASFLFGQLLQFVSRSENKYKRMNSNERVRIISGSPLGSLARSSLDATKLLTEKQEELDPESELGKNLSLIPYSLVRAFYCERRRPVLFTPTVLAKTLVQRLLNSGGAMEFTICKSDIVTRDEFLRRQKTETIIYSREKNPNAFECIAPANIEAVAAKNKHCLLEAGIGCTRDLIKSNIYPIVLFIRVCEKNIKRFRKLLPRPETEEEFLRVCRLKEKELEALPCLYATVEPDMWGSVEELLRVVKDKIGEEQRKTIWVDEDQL
UniProt Q9HB07: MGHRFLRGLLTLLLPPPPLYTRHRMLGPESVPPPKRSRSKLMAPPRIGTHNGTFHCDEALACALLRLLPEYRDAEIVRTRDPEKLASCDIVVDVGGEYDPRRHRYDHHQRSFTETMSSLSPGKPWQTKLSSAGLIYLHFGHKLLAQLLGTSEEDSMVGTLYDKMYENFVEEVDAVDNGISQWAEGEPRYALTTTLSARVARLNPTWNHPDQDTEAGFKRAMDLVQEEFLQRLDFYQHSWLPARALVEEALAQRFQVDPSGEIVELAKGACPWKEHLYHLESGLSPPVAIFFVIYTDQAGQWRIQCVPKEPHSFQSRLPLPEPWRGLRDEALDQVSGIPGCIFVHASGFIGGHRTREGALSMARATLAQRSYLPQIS
UniProt Q96MH7: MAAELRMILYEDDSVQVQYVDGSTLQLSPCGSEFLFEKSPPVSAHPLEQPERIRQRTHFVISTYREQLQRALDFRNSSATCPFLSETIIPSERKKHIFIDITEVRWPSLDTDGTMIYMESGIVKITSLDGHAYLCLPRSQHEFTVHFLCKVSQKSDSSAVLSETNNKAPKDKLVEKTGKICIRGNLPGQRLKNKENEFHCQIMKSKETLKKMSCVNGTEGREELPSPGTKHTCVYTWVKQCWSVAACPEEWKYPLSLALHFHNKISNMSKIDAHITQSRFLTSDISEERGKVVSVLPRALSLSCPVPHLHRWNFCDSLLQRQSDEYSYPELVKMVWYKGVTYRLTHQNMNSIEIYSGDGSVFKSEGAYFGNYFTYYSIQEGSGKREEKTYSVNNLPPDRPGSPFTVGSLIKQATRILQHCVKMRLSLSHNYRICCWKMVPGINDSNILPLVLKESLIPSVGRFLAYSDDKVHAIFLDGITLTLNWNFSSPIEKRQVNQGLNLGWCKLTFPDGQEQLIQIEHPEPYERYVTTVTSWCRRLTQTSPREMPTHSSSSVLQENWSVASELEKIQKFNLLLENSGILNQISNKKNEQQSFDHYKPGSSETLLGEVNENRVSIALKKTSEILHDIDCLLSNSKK
UniProt Q9BX69: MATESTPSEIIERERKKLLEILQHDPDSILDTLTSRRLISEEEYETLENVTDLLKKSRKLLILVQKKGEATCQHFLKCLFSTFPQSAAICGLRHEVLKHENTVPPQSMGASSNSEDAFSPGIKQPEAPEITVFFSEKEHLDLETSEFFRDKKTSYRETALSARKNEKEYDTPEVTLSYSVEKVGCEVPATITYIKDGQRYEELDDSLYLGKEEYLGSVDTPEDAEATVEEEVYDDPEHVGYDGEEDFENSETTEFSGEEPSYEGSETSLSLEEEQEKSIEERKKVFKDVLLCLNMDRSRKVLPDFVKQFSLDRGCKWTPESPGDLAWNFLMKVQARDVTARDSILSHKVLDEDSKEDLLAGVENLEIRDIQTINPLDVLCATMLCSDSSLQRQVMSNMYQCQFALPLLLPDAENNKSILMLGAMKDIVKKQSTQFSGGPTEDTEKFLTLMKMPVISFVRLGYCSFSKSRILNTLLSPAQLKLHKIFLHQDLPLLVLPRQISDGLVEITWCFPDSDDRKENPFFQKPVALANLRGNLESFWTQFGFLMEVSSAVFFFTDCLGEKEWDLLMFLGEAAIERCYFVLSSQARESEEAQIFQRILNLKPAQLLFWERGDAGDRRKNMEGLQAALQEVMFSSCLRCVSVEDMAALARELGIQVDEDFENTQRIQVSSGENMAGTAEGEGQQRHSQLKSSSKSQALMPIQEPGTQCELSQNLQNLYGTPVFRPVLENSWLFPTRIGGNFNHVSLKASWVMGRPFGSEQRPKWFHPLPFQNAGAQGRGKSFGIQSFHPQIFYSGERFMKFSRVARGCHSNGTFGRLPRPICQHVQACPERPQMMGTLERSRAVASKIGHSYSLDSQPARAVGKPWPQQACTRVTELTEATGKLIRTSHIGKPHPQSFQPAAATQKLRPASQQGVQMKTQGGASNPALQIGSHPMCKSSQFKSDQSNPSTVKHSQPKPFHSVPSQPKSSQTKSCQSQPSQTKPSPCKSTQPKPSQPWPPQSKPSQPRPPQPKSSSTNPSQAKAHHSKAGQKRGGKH
UniProt Q6UX52: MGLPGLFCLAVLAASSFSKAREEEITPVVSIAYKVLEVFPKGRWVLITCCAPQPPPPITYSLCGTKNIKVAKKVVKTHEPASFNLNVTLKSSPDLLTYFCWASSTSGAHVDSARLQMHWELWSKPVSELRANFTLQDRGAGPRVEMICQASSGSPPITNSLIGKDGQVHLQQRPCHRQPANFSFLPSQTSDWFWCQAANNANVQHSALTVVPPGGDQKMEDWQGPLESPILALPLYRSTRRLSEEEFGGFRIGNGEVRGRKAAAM

What was measured:
Assay in all cases: log2 fold change, soluble protein after heating vs DMSO (PISA); higher = thermal stabilisation; K562 cells, 10 uM, 30 min; active = over 0.2 and 3.5 SD of the protein, either way, in both replicates (recomputed)
[1] = compound: NC(=O)c1cnc(N[C@@H]2CCCC[C@@H]2N)nc1Nc1cccc(-n2nccn2)c1
How it was run: (§1)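 K562 cells (2×10^6 cells/mL) were treated with 10 μM compound for 30 min, and aliquots were heated for 3 min over 48°C-58°C. Pooled aliquots were extracted in PBS with 0.5% NP-40 at 4°C, and the supernatant after 21,000xg for 90 min was measured by TMTpro 16plex LC-MS/MS with channel sums equalised. Reported thermal stability, relative to control samples and from duplicates, is a log2 fold change.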

[2] = compound: FC(F)(F)c1ccc(/C=C/c2nc(COc3ccc(CCCCn4ccnn4)cc3)co2)cc1 [mubritinib]
How it was run: as §1

[3] = compound: NC1(c2ccc(-c3nc4ccn5c(=O)[nH]nc5c4cc3-c3ccccc3)cc2)CCC1
How it was run: as §1

[4] = compound: O=C(O)c1ccc2c(c1)nc(Nc1cccc(Cl)c1)c1ccncc12 [silmitasertib]
How it was run: as §1

[5] = compound: Cn1cncc1[C@@](N)(c1ccc(Cl)cc1)c1ccc2c(c1)c(-c1cccc(Cl)c1)cc(=O)n2C [tipifarnib]
How it was run: as §1

[6] = compound: O=C1NC(=O)C(c2cnc3ccccn23)=C1c1cn2c3c(cc(F)cc13)CN(C(=O)N1CCCCC1)CC2
How it was run: as §1

[7] = compound: NC(=O)Nc1cc(-c2cccc(F)c2)sc1C(=O)N[C@H]1CCCNC1
How it was run: as §1

[8] = compound: Nc1ccccc1NC(=O)c1ccc(CNC(=O)OCc2cccnc2)cc1 [entinostat]
How it was run: as §1

[9] = compound: Cc1cccc(CC(=O)N2CCc3c2ccc(-c2cn(C)c4ncnc(N)c24)c3F)n1
How it was run: as §1

[10] = compound: O=C(CCCCCCC(=O)Nc1ccccc1)NO [vorinostat]
How it was run: as §1

[11] = compound: Cn1cc(-c2ccc3nnc(C(F)(F)c4ccc5ncccc5c4)n3n2)cn1
How it was run: as §1

[12] = compound: O=C(CCCCCCNC(=O)c1cnc(N(c2ccccc2)c2ccccc2Cl)nc1)NO [citarinostat]
How it was run: as §1

[13] = compound: c1cc(OCCN2CCCCC2)cc(-c2n[nH]c3ccc(-c4nnc[nH]4)cc23)c1
How it was run: as §1

[14] = compound: Cc1nc(Nc2ncc(C(=O)Nc3c(C)cccc3Cl)s2)cc(N2CCN(CCO)CC2)n1 [dasatinib]
How it was run: as §1

[15] = compound: Cn1cc(-c2ccc3c(c2)CCN3C(=O)Cc2cccc(C(F)(F)F)c2)c2c(N)ncnc21
How it was run: as §1

[16] = compound: NCC(=O)Nc1ccc(-n2nc(C(F)(F)F)cc2-c2ccc3c(ccc4ccccc43)c2)cc1
How it was run: as §1

Measured: log2 fold change

CAPNS1 (UniProt U3KPR7)
inactive: [1] -0.163

C18orf21 (UniProt Q32NC0)
inactive: [2] -0.201 | [3] 0.17 | [4] 0.228

C5orf30 (UniProt Q96GV9)
inactive: [5] 0.152 | [1] -0.191 | [6] -0.051

C1orf43 (UniProt Q9BWL3)
inactive: [7] 0.031 | [8] 0.031

C12orf49 (UniProt Q9H741)
inactive: [9] 0.118 | [10] 0.137

CAPNS2 (UniProt Q96L46)
inactive: [11] 0 | [2] -0.488 | [3] 0.035 | [12] -0.26 | [4] 0.524 | [13] 0.556

CAMKK1 isoform 2 (UniProt Q8N5S9)
inactive: [9] -0.237 | [5] 0.043 | [10] 0.188

C7orf50 (UniProt Q9BRJ6)
inactive: [14] 0.207 | [15] -0.158 | [11] -0.128 | [1] 0.082 | [16] 0.01

CALML3 (UniProt P27482)
inactive: [14] -0.282 | [5] 0.213 | [2] 0.173 | [1] 0.475 | [3] 0.11 | [12] -0.057 | [4] 0 | [6] 0.015 | [13] 0.113

2 successive records from above, for reference:
C7orf50 (UniProt Q9BRJ6)
inactive: [14] 0.207 | [15] -0.158 | [11] -0.128 | [1] 0.082 | [16] 0.01

CALML3 (UniProt P27482)
inactive: [14] -0.282 | [5] 0.213 | [2] 0.173 | [1] 0.475 | [3] 0.11 | [12] -0.057 | [4] 0 | [6] 0.015 | [13] 0.113

Continued:

CARD11 (UniProt Q9BXL7)
inactive: [14] -0.049 | [15] -0.012 | [5] -0.001 | [7] -0.176 | [1] -0.105 | [8] 0.048 | [6] 0.053

C12orf10 (UniProt Q9HB07)
inactive: [9] -0.031 | [10] 0

C5orf34 (UniProt Q96MH7)
inactive: [2] -0.057 | [3] 0.076 | [4] 0.146

CABIN1 (UniProt Q9Y6J0)
inactive: [2] 0.046 | [3] -0.106 | [4] 0.604

CARD6 (UniProt Q9BX69)
inactive: [11] -0.486 | [12] -0.027 | [13] -0.121

C17orf99 (UniProt Q6UX52)
inactive: [9] -0.124 | [2] -0.306 | [1] -0.041 | [3] -0.018 | [10] -0.062 | [4] 0 | [6] -0.085
